# Measurements reported in PubChem BioAssay (EPA / NIEHS).
# Amino acid sequences for entries named in this document (tags omitted). A change or cut given only in a name is not applied to a line headed by its entry.
# UniProt Q96RI1: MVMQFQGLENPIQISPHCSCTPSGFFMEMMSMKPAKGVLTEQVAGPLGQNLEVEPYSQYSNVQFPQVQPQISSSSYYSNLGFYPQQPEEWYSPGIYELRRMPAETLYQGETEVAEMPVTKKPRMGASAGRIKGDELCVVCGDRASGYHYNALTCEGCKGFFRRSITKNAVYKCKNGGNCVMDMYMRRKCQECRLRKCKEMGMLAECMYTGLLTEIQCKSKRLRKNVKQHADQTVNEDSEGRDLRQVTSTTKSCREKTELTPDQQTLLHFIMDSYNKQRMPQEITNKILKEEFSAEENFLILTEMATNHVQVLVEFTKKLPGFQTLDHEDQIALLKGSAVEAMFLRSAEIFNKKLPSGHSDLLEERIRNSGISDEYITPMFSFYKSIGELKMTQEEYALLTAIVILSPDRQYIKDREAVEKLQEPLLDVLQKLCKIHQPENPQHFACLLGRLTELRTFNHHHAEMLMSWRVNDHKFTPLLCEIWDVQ
# UniProt P04406: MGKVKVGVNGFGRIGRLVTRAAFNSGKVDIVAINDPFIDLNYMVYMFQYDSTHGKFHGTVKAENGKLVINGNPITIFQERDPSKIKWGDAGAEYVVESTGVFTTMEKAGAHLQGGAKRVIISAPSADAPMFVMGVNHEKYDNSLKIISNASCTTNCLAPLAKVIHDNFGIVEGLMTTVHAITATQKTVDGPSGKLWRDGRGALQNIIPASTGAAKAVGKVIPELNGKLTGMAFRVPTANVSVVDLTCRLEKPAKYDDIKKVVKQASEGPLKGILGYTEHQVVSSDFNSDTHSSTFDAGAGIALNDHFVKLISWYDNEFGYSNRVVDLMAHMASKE
# UniProt P11712, whole entry, looked up: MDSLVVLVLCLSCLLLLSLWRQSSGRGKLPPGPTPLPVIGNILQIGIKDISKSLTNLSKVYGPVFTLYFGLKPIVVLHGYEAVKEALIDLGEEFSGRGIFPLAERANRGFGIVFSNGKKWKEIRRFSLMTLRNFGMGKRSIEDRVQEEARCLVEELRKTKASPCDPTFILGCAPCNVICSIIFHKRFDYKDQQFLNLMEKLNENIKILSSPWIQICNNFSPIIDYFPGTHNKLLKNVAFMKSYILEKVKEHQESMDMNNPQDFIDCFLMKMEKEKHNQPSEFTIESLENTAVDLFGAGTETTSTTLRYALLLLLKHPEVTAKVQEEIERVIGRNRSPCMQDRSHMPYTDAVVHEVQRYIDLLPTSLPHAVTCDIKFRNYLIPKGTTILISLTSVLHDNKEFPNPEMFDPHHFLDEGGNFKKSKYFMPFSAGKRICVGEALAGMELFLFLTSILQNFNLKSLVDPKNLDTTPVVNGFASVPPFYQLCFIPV
# UniProt P33261, whole entry, looked up: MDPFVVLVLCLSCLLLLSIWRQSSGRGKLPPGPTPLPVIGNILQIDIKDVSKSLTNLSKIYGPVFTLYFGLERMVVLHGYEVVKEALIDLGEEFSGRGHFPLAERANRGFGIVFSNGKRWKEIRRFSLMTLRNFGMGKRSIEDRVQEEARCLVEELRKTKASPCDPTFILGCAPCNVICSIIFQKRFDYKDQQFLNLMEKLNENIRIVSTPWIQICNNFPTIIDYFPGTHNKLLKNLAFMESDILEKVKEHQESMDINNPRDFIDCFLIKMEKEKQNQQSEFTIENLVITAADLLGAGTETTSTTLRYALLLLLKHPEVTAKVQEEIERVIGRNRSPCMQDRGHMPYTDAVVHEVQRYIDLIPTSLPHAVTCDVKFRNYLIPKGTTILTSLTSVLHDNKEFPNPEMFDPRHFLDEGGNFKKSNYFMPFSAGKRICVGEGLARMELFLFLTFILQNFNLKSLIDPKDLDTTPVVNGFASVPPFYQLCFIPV
# UniProt Q9UNQ0: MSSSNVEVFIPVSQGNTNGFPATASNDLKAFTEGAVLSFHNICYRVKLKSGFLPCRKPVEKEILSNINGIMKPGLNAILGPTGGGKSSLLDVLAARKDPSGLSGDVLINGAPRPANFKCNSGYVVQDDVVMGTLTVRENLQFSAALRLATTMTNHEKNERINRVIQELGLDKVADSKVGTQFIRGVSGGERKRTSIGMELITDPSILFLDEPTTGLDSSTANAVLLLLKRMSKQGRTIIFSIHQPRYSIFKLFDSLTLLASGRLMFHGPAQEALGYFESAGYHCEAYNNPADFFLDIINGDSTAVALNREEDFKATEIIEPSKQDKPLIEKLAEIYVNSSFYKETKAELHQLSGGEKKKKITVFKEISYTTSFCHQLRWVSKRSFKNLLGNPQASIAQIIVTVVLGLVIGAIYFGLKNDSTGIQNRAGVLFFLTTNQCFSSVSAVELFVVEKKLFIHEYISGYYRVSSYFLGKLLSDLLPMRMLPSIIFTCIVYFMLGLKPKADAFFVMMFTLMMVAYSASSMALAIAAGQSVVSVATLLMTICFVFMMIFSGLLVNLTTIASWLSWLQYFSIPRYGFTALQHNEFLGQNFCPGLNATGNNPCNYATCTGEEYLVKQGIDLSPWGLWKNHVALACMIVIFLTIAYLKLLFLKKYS
# Inconclusive results, whose numbers are uncertain, are shown with a selection of clear calls. For some assays here: A potency beside an inconclusive call is a rough fit, not a confirmed value. The source made the active and inactive calls. How the source made its calls: active means hit-call score of the fitted dose curve at least 0.9, where 1 is the maximum; inconclusive means response in the unintended direction; inactive means score below 0.9.
# Experiments:
# [1] = Tanguay_ZF_120hpf_PIG_legacy: (Legacy) Oregon State University Tanguay Lab 120 Hour Post-fertilization zebrafish Assay for Pigmentation Malformation (AID 2283650)
# Summary of the method: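 Pronase dechorionation at 4 hpf; embryos plated at 6 hpf, one per well; static exposure, sealed and foil-covered, 28C, to 120 hpf; pigmentation read by brightfield, binary; DMSO 0.64% baseline, 5uM trimethyltin chloride positive control.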
# [2] = ATG_XTT_Cytotoxicity: Cytotoxicity Assessment in the Attagene TRANS-FACTORIAL HepG2 Assay (AID 2283584);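 on AC50: XTT signal for cell number as viability in transfected HepG2 cells; cells exposed to compound for 24 h before reading; active means loss of viability signal versus DMSO baseline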
# Summary of the method: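 Transfect HepG2 with GAL4-UAS reporter units, dose compound, incubate 24 h, then measure viable cell number by XTT. Fit concentration response against DMSO baseline.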
# [3] = target: Bile acid receptor (Homo sapiens) (UniProt Q96RI1); test: OT_FXR_FXRSRC1_1440: Odyssey Thera (OT) 24-hour HEK293T Protein-Complementation Assay for Farnesoid X receptor/SRC-1 Co-activator (AID 2283384)
# Summary of the method: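 Compounds are applied to human kidney HEK293T cells expressing bait and prey fused to reporter protein fragments; after 24 h, reconstituted reporter fluorescence is measured. Activity is fitted as signal gain over DMSO.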
# [4] = CCTE_Deisenroth_AIME_384WELL_CTox_Inactive: Cytotoxicity Assessment (CTOX) in CCTE's 384-well Estrogen Receptor Transactivation Assay without AIME metabolic competence (metabolism negative), Deisenroth Lab (AID 2284039);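 further: cell viability via live-cell protease substrate cleaved to fluorescent probe; cells exposed 24 h to medium preincubated 2 h with alginate-water beads without S9; loss of fluorescence signal means loss of viability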
# Summary of the method: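 Fluorescence from a live-cell protease substrate, read after 24 h in VM7Luc4E2 cells, indicated viability. Test medium came from a 2 h AIME step without hepatic S9 (alginate-water microspheres); concentrations spanned 0.002 - 200 uM, single technical replicate per run.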
# [5] = Tanguay_ZF_120hpf_NC_legacy: (Legacy) Oregon State University Tanguay Lab 120 Hour Post-fertilization zebrafish Assay for Notochord and Tail Malformation (AID 2283656)
# Summary of the method: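 Dechorionated Tropical 5D wild-type zebrafish embryos, one per well from 6 hpf, statically exposed to 120 hpf at 28C in 0.64% DMSO final. Notochord distortion scored present/absent by brightfield; dead embryos excluded.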
# [6] = ACEA_AR_antagonist_AUC_viability: ACEA Biosciences xCELLigence Real-Time Cell Analysis on Androgen Receptor Antagonism for Viability (AID 2283776);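 further: 22Rv1 human prostate cancer cells growing on impedance electrode plates; area under impedance growth curve at 80 h after dosing as viability; hits lower the growth signal relative to DMSO meaning cytotoxicity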
# Summary of the method: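 Viability endpoint from label-free cell-index monitoring: 22Rv1 cultures treated with an eight-point 1:4 dilution series starting at 100 uM final, AUC at 80 h fitted against DMSO.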
# [7] = read-out: organic anion transporter (SLCO1B1), SLCO1B1 (gene 10599); test: CLD_SLCO1B1_6hr: CellzDirect (CLD) Gene Expression Assay for organic anion transporter (SLCO1B1) at 6 hours (AID 2283668);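 further: active means mRNA induction above DMSO baseline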
# Summary of the method: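 Primary human hepatocytes dosed daily with test chemicals (multiple concentrations) in 0.2% DMSO vehicle; harvested at 6 h. SLCO1B1 mRNA quantified by qNPA chemiluminescence, fitted as gain-of-signal versus DMSO; cytotoxicity from phase-contrast morphology flagged alongside.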
# [8] = CLD_ACTIN_24hr: CellzDirect (CLD) Gene Expression Assay for Baseline Control (Actin) at 24 hours (AID 2283670)
# Summary of the method: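 Primary human hepatocytes dosed over multiple concentrations with 0.2% DMSO vehicle; actin mRNA measured at 24 h by qNPA chemiluminescence. Background control endpoint, fitted as gain of signal versus DMSO.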
# [9] = read-out: Glyceraldehyde-3-phosphate dehydrogenase (Homo sapiens) (UniProt P04406); test: CLD_GAPDH_6hr: CellzDirect (CLD) Gene Expression Assay for Baseline Control (Glyceraldehyde 3-phosphate dehydrogenase) at 6 hours (AID 2283681)
# Summary of the method: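 Primary human hepatocytes from two donor preparations, dosed at multiple concentrations with 0.2% DMSO vehicle; GAPDH mRNA measured 6 h after dosing by chemiluminescent quantitative nuclease protection assay (qNPA) on denatured lysates. Serves as background control; cytotoxicity annotated by morphology.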
# [10] = read-out: Cytochrome P450 2C9 (Homo sapiens) (UniProt P11712); test: CLD_CYP2C9_24hr: CellzDirect (CLD) Gene Expression Assay for xenobiotic metabolism (CYP2C9) at 24 hours (AID 2283688);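 further: potency for induction meaning a rise in CYP2C9 mRNA over DMSO vehicle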
# Summary of the method: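 Primary human hepatocytes from two donor preparations, dosed daily for two days at multiple concentrations; vehicle 0.2% DMSO. CYP2C9 mRNA induction at 24 h measured by qNPA chemiluminescence relative to DMSO; cytotoxicity annotated from morphology.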
# [11] = read-out: ABC Transporter (ABCB11), ABCB11 (gene 8647); test: CLD_ABCB11_48hr: CellzDirect (CLD) Gene Expression Assay for ABC Transporter (ABCB11) at 48 hours (AID 2283697)
# Summary of the method: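 Primary human hepatocytes from two donor preparations dosed daily for two days at multiple concentrations; 0.2% DMSO vehicle. ABCB11 mRNA at 48 h by quantitative nuclease protection assay, chemiluminescence; fitted for induction versus DMSO.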
# [12] = read-out: Cytochrome P450 2C19 (Homo sapiens) (UniProt P33261); test: CLD_CYP2C19_48hr: CellzDirect (CLD) Gene Expression Assay for xenobiotic metabolism (CYP2C19) at 48 hours (AID 2283700)
# Summary of the method: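 Primary human hepatocytes (two donor preparations) dosed daily for two days, harvested at 48 h; CYP2C19 mRNA induction measured by qNPA chemiluminescence. Gain-of-signal fitted relative to 0.2% DMSO vehicle as baseline.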
# [13] = read-out: Broad substrate specificity ATP-binding cassette transporter ABCG2 (Homo sapiens) (UniProt Q9UNQ0); test: CLD_ABCG2_48hr: CellzDirect (CLD) Gene Expression Assay for ABC Transporter (ABCG2) at 48 hours (AID 2283704);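 further: potency for induction of ABCG2 mRNA above the DMSO baseline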
# Summary of the method: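 Primary human hepatocytes from two donors, dosed daily for 2 days, 0.2% DMSO vehicle, several concentrations. ABCG2 mRNA at 48 h by qNPA chemiluminescence, gain fitted versus DMSO; cytotoxicity flagged by morphology.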
# [14] = read-out: Glyceraldehyde-3-phosphate dehydrogenase (Homo sapiens) (UniProt P04406); test: CLD_GAPDH_48hr: CellzDirect (CLD) Gene Expression Assay for Baseline Control (Glyceraldehyde 3-phosphate dehydrogenase) at 48 hours (AID 2283706)
# Summary of the method: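 Primary human hepatocytes dosed daily for two days with fresh chemical at multiple concentrations, 0.2% DMSO vehicle; GAPDH mRNA measured at 48 h by quantitative nuclease protection assay with chemiluminescence, fitted upward relative to DMSO as background control.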
# [15] = read-out: organic anion transporter (SLCO1B1), SLCO1B1 (gene 10599); test: CLD_SLCO1B1_48hr: CellzDirect (CLD) Gene Expression Assay for organic anion transporter (SLCO1B1) at 48 hours (AID 2283707)
# Summary of the method: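 Primary human hepatocytes from two donor preparations dosed daily for two days with multiple concentrations, 0.2% DMSO vehicle. SLCO1B1 mRNA at 48 h by quantitative nuclease protection assay, chemiluminescence; gain-of-signal fitted versus DMSO.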
# [16] = read-out: HMG-CoA synthase (HMGCS2), HMGCS2 (gene 3158); test: CLD_HMGCS2_48hr: CellzDirect (CLD) Gene Expression Assay for HMG-CoA synthase (HMGCS2) at 48 hours (AID 2283711)
# Summary of the method: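 Primary human hepatocytes from two donors dosed daily for two days, 0.2% DMSO vehicle. HMGCS2 mRNA measured 48 h after dosing by quantitative nuclease protection assay with chemiluminescent read-out; induction fitted relative to DMSO, cytotoxicity flagged by microscopy.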
smiles,measurement,setting,value
O=[N+]([O-])c1ccc(Cl)cc1,AC50,[1],inconclusive: 28.6 µM
c1ccc(C2CO2)cc1 (stereo unspecified),AC50,[2],inconclusive: 100 µM
CC(C)(O)C#N,outcome,[3],inactive
same,outcome,[2],inactive
same,AC50,[4],inconclusive: 100 µM
N#CC(Br)Br,AC50,[1],inconclusive: 31.3 µM
same,outcome,[5],inactive
CC1(C)[C@H](C(=O)O[C@H](C#N)c2cccc(Oc3ccccc3)c2)[C@@H]1/C=C(\Cl)C(F)(F)F,outcome,[3],inactive
same,AC50,[2],inconclusive: 100 µM
N#Cc1ccc(N(CC(N)=O)CC(F)(F)F)cc1C(F)(F)F,AC50,[3],inconclusive: 9.57 µM
same,AC50,[6],inconclusive: 0.0032 µM
CCOc1ccc(C(C)(C)COCc2cccc(Oc3ccccc3)c2)cc1,AC50,[3],inconclusive: 50 µM
same,outcome,[5],inactive
CN(C)C(=O)C(c1ccccc1)c1ccccc1,AC50,[4],inconclusive: 0.0002 µM
CCC(=O)Nc1ccc(Cl)c(Cl)c1,AC50,[7],inconclusive: 20 µM
same,AC50,[8],inconclusive: 8.34 µM
same,AC50,[9],inconclusive: 0.00696 µM
same,AC50,[10],inconclusive: 20 µM
same,AC50,[11],inconclusive: 20 µM
same,AC50,[12],inconclusive: 28.3 µM
same,AC50,[13],inconclusive: 20 µM
same,AC50,[14],inconclusive: 20 µM
same,AC50,[15],inconclusive: 6.52 µM
same,AC50,[16],inconclusive: 20 µM
same,AC50,[6],active: 20.7 µM

# 2 entries picked at random from the list so far, as already listed:
smiles,measurement,setting,value
CCC(=O)Nc1ccc(Cl)c(Cl)c1,AC50,[6],active: 20.7 µM
same,AC50,[11],inconclusive: 20 µM
